Results are given in words; binding and its absence hold for the method and conditions named. In cells and extracts the contact can be indirect. Some binding calls cover weakened binding; strength is not graded here. For part of these data: Where a sequence is shown, tags or fusion partners need not be part of it.

By UniProt entry, the sequences of proteins in these tests, tags left out.
UniProt Q8N4N8: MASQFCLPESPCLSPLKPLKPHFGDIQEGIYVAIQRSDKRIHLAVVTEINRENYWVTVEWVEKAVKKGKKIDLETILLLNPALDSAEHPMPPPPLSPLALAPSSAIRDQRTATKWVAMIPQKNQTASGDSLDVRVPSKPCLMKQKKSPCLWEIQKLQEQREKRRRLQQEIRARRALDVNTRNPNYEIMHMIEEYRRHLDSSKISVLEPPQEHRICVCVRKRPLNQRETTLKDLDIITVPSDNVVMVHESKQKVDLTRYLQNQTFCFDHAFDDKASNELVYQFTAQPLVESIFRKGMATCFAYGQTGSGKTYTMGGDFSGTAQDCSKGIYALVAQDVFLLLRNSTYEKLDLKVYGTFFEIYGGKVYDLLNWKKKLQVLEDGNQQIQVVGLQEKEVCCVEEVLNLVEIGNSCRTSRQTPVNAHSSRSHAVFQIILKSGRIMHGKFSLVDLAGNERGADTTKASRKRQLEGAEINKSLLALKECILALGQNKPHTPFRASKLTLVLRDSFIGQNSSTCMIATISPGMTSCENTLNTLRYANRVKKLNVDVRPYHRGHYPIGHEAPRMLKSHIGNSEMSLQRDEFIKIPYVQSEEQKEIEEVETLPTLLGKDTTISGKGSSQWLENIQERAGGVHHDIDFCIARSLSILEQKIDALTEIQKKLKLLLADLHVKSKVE
UniProt Q03164: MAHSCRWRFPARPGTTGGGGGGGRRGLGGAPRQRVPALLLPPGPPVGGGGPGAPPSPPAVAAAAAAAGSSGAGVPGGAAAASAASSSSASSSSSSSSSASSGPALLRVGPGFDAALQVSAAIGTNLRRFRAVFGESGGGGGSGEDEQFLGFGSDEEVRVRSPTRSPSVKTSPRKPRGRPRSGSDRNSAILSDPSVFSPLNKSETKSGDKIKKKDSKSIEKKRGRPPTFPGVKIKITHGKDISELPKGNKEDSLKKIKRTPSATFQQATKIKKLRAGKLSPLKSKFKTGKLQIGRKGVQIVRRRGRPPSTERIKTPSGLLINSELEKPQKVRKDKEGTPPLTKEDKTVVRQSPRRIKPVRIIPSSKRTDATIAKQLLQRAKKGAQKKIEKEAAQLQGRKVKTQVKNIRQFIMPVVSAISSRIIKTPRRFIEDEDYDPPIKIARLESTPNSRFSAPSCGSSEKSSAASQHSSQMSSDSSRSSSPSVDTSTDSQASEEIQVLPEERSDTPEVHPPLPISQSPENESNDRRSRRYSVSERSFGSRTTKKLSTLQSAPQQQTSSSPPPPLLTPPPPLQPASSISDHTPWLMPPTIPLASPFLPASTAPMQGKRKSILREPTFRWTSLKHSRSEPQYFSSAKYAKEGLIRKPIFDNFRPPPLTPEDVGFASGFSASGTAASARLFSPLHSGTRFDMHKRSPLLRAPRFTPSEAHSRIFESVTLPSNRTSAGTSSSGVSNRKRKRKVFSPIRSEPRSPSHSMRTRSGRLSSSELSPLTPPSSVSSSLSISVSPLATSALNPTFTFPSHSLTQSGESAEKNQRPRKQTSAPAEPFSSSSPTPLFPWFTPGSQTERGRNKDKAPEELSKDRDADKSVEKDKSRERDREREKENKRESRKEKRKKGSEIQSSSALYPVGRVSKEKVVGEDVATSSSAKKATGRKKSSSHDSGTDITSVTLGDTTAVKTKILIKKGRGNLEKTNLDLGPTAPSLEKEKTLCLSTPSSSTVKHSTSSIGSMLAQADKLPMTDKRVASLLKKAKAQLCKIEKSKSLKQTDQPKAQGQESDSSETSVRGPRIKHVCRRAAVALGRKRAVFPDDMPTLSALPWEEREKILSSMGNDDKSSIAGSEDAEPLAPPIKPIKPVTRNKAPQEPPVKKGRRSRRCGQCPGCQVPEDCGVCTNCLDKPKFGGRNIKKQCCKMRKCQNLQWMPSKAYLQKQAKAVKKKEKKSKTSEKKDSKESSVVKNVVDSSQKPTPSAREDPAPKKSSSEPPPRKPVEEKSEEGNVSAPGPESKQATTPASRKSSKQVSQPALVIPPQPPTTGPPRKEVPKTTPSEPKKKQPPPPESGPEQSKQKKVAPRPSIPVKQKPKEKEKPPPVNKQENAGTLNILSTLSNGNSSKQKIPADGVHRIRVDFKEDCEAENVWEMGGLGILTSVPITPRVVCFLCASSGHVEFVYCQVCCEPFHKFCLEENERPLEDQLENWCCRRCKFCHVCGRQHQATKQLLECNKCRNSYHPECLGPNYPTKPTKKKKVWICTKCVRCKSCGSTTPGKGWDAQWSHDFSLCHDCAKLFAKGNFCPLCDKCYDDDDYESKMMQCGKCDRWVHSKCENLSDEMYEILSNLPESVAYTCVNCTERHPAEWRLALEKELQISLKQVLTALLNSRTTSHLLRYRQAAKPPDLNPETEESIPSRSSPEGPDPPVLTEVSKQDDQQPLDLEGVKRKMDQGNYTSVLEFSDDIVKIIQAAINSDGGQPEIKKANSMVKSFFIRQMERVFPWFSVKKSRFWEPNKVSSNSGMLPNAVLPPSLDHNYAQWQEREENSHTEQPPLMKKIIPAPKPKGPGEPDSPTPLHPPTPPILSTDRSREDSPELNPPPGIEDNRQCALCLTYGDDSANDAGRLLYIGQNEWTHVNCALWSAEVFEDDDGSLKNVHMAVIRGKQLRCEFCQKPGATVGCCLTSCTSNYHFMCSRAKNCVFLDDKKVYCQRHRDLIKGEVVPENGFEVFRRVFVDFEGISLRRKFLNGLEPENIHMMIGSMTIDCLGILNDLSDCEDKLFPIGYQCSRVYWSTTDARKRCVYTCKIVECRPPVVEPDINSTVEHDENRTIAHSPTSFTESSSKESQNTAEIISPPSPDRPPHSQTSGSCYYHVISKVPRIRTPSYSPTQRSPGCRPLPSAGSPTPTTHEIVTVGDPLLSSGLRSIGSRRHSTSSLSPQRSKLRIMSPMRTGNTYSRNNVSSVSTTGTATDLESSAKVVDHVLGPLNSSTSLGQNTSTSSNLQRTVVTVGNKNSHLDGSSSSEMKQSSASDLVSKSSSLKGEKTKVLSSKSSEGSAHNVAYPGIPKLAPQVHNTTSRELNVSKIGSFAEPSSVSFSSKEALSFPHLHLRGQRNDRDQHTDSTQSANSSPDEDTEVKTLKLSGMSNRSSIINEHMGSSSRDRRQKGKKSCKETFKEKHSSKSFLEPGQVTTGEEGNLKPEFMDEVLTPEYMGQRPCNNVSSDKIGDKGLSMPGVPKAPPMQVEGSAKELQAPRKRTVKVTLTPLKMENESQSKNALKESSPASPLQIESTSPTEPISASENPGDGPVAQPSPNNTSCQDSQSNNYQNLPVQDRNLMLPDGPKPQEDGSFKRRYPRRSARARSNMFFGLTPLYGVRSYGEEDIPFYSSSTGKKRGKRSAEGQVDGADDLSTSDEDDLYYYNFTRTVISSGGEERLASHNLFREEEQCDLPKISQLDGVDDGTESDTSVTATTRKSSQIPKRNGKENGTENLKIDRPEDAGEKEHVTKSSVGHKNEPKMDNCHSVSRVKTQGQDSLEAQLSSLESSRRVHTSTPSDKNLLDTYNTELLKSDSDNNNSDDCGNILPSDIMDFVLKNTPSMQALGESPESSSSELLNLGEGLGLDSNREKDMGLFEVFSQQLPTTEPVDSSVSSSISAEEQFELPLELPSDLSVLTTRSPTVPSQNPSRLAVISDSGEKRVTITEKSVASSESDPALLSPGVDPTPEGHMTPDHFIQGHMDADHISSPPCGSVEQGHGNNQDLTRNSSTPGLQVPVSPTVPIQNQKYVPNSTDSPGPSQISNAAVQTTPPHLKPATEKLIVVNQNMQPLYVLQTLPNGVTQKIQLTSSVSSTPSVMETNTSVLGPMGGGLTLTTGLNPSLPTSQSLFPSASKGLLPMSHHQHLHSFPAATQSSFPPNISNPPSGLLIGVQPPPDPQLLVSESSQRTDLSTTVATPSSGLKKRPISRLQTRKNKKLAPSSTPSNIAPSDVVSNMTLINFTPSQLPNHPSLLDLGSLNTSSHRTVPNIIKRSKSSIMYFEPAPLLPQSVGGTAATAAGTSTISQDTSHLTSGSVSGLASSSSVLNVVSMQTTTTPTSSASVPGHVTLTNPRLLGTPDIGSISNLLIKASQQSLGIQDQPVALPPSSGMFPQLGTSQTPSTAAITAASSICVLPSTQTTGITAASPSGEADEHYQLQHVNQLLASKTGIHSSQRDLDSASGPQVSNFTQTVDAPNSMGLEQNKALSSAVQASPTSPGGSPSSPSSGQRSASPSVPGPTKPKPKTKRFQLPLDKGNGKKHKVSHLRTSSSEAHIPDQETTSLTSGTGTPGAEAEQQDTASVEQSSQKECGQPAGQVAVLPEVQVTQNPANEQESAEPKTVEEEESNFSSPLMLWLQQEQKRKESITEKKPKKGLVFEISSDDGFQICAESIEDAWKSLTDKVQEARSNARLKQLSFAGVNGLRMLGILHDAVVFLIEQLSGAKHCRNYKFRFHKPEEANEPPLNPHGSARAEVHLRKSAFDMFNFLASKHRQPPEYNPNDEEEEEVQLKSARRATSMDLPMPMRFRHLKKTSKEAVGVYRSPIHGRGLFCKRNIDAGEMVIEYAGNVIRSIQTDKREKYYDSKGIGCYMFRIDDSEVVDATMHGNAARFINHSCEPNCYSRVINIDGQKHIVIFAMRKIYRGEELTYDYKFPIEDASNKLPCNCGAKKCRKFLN
UniProt Q15291: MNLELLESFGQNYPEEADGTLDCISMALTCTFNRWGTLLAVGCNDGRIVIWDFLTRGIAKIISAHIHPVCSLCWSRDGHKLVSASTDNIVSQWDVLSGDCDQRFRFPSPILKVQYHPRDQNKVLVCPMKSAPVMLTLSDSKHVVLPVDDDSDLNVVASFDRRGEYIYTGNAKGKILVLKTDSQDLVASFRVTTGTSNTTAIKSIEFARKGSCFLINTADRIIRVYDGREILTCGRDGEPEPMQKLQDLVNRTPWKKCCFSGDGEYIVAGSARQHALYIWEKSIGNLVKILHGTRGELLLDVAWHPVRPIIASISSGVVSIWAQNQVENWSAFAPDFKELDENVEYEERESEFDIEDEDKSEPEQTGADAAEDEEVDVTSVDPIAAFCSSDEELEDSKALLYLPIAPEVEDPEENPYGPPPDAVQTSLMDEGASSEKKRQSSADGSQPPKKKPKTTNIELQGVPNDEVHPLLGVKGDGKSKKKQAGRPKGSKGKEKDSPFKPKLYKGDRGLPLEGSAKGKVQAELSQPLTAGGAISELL

Holding throughout (assay): pull-down
In assay [1] the target is T1, LAP Tagged KIF2C.GFP (UniProt Q99661).
T1 sequence: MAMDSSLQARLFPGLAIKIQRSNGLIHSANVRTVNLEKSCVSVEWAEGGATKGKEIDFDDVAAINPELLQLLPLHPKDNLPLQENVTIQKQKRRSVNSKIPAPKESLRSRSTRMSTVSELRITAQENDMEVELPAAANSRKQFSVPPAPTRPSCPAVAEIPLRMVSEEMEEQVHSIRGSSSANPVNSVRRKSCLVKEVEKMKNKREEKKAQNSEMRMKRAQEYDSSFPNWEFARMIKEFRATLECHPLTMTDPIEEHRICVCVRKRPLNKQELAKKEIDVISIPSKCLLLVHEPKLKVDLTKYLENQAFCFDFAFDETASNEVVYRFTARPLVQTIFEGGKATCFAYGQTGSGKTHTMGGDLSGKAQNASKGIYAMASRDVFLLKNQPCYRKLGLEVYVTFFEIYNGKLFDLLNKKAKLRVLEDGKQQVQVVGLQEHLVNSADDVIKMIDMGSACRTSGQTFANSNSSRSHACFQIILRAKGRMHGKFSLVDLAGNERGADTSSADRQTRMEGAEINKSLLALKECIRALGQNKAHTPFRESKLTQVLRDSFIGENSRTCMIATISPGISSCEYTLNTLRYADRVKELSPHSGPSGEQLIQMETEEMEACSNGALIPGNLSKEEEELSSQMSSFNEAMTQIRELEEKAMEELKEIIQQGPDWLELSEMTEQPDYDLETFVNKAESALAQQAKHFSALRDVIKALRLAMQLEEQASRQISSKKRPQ

In assay [2] the target is LAP tagged KIF2B (UniProt Q8N4N8).
Assay [3] concerns the target T2, GST-KIF2C (UniProt Q99661).
T2 sequence: T1 sequence

Assay [4] addresses GST-KIF2B (UniProt Q8N4N8).

“Mixed-lineage leukemia (MLL/KMT2A) protein (endogenous, HeLa) (from UniProt Q03164 1-3969)”: the binding result in assay [1] and in assay [2] was “binds” each time.
Regarding “RbBP5 (endogenous, HEK293T) (from UniProt Q15291 1-538)”, the binding entry in assay [3] and in assay [4] was “binds” throughout.
With “RbBP5 (endogenous, HeLa) (from UniProt Q15291 1-538)”, the binding result in assay [1] and in assay [2] was “binds” in each case.

(Values after doi:10.1101/2024.10.17.618797.)
